One experiment concerns the target ELF1 (UniProt P32519). The experiment is described as follows: DAPPL (digital affinity profiling via proximity ligation, sequencing). The settings on record: 10 mM Tris-HCl pH 7.5, 50 mM NaCl, 1 mM DTT, 4% glycerol, room temperature, 30 min; GST-TFs on glutathione beads, 16-mer random dsDNA library, 0.1% …; high values mean tight binding; double strand, one strand shown; scale: fold enrichment (6-mer frequency, TF over GST control).

By UniProt entry, the sequences of proteins in these tests, tags left out. Where a name states a change or a piece, a line headed by the entry shows the natural chain unless it says otherwise.
UniProt P32519: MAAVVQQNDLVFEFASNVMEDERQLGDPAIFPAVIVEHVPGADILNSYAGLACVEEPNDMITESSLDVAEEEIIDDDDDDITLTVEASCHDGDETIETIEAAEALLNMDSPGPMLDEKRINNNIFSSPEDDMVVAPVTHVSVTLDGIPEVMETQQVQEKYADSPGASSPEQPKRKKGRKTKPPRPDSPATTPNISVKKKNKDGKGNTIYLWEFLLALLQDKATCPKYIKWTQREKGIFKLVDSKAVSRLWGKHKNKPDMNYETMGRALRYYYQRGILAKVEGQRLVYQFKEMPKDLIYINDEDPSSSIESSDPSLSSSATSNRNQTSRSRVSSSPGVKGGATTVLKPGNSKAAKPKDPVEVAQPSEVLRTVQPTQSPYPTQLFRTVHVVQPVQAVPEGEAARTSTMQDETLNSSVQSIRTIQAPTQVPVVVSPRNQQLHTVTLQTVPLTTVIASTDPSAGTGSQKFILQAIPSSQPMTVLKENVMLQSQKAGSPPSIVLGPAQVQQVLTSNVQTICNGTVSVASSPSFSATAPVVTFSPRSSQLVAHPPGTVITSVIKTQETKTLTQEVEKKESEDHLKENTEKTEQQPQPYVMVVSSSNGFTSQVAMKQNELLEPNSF

The next experiment concerns the target T1, ETV4 (UniProt P43268).
T1 sequence: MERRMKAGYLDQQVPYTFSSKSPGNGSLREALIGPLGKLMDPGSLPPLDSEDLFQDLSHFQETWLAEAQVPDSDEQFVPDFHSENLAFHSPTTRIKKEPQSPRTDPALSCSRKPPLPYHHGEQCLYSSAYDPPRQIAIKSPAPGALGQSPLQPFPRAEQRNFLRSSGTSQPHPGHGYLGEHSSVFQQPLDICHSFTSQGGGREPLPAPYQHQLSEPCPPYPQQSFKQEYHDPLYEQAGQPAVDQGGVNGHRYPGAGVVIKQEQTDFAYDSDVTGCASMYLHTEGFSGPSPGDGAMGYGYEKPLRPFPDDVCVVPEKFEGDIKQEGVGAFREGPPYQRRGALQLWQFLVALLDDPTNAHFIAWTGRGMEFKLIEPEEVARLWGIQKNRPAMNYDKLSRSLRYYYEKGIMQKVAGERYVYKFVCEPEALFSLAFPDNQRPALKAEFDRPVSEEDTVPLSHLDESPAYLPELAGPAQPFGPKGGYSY
The experiment is described as above. Particulars: 10 mM Tris-HCl pH 7.5, 50 mM NaCl, 1 mM DTT, 4% glycerol, room temperature, 30 min; GST-TFs on glutathione beads, 16-mer random dsDNA library, 0.1% …; high values mean tight binding; double strand, one strand shown; scale: fold enrichment (6-mer frequency, TF over GST control).

Only a part is listed here, and it is no random draw. For some of these results: At the low end of the ranking, values are background and their order means little. The list shows a part of the results. For some of these results: The exact form of the protein is not confirmed.

As to AAACCT, the binding signal came out at 1.19 in the experiment with ELF1 and 1.13 with ETV4.
For TGTAAG, the binding signal in the experiment with ELF1 stood at 1.11; with ETV4 it was 1.07.
For TCAATG, the binding signal with ELF1 is 1.04; in the experiment with ETV4, 1.09.
Take TCCGCA: the binding signal turned out to be 2.01 in the experiment with ELF1 and 2.03 with ETV4.
CTTAAC: the figures for the binding signal with ELF1 and with ETV4 were 1.35 and 1.27, respectively.
For the sequence CCTTAT, the binding signal in the experiment with ELF1 came out at 1.39; with ETV4, 1.43.
Consider CGCAAA, for which the binding signal with ELF1 and in the experiment with ETV4 was 1 throughout.
As to TTTCTG, the figures for the binding signal in the experiment with ELF1 and in the experiment with ETV4 were 1.34 and 1.31, respectively.
On to GATATT, for which the binding signal with ELF1 came out at 1.13; in the experiment with ETV4, 1.09.
On the same counts, the results for TTGAAG are 0.987 and 0.965.
On the same counts, the results for CCTTCA are 1.51 and 1.5.
